Assay results from the supplement of paper PMC7666118.
Some of the results follow.

Chains of the proteins cited; added tags and fusions are not shown. Lines headed by an entry give the natural chain unless they say otherwise; changes in a name come on top.
UniProt Q96MX0: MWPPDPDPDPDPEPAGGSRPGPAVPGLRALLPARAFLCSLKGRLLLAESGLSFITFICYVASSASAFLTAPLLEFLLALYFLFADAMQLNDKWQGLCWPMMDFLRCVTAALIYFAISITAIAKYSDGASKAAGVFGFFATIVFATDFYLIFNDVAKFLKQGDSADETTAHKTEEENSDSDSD
UniProt Q14004, whole entry, looked up: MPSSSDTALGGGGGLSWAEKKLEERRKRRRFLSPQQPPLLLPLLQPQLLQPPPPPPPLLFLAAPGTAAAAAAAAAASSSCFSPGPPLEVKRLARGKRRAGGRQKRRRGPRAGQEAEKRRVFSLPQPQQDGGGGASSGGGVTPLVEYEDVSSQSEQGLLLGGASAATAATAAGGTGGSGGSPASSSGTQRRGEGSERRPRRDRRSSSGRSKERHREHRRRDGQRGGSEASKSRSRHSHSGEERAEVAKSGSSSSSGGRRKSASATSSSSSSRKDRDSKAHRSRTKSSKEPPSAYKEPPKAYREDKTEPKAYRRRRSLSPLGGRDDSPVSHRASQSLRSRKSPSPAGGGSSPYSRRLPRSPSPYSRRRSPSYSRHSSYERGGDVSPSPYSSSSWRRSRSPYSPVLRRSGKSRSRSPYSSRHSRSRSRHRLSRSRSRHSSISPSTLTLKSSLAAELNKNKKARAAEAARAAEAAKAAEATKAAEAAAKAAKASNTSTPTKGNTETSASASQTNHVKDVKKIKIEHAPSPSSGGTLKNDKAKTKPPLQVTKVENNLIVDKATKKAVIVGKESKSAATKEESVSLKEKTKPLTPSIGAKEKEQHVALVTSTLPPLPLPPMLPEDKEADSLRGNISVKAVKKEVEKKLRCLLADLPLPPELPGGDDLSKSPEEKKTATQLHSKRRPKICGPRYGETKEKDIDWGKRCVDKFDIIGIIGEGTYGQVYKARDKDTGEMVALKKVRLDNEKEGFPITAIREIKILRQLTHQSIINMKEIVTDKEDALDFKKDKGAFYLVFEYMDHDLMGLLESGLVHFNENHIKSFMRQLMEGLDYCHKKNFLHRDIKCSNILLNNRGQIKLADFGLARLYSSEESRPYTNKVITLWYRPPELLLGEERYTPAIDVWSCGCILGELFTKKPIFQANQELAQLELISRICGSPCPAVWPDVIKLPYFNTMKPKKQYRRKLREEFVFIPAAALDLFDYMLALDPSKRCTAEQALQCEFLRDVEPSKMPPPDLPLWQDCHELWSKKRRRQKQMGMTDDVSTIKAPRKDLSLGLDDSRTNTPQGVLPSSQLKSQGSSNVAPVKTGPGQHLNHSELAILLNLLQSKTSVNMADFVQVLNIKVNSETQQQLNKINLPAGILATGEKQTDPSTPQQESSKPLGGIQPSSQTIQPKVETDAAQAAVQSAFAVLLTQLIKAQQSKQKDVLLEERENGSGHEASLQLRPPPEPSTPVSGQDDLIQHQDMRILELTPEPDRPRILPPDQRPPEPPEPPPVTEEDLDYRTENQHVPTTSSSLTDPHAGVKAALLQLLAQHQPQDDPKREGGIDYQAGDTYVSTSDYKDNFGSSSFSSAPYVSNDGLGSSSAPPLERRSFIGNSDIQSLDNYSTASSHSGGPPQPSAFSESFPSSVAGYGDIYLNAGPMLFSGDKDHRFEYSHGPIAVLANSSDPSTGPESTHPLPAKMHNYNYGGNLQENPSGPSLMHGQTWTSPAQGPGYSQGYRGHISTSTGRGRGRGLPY
UniProt Q16740, whole entry: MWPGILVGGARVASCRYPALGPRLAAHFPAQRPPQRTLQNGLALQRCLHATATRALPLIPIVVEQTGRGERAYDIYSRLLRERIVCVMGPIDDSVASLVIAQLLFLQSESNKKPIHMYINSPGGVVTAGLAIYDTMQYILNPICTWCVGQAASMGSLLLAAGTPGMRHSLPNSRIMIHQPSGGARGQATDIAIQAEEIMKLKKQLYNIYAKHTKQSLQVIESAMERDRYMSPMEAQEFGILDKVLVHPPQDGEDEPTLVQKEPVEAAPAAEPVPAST
UniProt Q08722, whole entry: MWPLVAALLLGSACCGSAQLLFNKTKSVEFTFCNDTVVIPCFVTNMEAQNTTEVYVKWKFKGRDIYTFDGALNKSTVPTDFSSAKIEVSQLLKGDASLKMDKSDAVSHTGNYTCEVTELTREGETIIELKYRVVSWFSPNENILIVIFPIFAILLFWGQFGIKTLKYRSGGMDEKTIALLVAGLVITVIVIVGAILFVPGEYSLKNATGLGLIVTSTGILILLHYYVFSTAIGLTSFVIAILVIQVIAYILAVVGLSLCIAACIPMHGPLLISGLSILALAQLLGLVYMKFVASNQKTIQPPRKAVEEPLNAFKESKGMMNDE
UniProt Q8IVM0: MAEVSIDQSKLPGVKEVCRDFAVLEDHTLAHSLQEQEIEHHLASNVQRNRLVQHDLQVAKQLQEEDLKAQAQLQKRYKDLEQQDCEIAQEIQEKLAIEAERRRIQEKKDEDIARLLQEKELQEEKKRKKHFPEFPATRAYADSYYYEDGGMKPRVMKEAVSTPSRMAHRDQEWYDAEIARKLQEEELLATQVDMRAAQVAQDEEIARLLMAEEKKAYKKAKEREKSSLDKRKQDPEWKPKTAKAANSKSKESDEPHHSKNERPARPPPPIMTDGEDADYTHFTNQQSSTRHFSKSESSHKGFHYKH
UniProt Q9NZ45: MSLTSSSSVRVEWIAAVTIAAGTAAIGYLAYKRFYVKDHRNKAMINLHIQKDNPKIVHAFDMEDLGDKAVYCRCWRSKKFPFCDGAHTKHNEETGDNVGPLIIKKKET
UniProt O43529: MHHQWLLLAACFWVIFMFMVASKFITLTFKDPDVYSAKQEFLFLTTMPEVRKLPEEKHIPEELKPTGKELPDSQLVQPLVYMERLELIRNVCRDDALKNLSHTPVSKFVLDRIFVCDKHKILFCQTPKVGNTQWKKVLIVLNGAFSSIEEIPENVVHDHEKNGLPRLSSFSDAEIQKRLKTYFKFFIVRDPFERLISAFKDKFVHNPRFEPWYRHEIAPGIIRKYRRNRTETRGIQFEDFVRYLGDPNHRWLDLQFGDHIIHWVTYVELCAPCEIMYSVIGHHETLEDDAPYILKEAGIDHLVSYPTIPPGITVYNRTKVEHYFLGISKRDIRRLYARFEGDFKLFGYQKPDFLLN
UniProt Q8IZ52: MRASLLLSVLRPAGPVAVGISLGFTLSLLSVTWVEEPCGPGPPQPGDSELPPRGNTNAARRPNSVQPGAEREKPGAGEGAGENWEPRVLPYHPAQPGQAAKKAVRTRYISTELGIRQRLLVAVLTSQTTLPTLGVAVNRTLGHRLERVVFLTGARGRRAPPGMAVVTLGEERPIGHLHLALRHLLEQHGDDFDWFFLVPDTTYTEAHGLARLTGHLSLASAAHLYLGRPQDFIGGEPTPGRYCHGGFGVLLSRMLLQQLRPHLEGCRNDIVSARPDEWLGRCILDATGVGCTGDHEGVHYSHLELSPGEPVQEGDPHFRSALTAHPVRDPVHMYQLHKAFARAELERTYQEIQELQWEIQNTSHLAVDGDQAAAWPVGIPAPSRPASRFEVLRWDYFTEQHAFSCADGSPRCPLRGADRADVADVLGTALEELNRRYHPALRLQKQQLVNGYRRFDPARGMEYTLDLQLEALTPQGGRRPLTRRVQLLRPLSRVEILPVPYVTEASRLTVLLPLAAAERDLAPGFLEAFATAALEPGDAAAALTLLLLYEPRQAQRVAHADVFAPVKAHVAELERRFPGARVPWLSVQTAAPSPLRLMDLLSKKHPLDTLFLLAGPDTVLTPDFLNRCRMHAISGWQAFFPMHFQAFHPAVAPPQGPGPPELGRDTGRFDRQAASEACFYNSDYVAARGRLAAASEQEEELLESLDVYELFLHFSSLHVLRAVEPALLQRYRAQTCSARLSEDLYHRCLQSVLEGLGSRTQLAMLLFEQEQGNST
UniProt Q13057: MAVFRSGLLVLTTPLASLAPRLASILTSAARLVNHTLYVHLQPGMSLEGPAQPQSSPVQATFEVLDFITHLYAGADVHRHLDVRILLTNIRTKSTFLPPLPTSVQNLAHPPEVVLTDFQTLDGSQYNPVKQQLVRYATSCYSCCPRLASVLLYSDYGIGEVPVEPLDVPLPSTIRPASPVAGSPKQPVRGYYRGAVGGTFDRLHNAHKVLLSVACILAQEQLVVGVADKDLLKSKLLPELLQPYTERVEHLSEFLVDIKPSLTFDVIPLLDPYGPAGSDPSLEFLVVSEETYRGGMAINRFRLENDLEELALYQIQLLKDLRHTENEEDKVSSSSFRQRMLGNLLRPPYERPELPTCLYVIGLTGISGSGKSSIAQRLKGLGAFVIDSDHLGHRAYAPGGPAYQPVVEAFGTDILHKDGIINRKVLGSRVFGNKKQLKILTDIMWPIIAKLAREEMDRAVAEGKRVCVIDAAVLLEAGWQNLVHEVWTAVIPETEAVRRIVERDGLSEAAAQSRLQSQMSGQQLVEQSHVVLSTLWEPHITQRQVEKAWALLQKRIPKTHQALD
UniProt Q96JB5: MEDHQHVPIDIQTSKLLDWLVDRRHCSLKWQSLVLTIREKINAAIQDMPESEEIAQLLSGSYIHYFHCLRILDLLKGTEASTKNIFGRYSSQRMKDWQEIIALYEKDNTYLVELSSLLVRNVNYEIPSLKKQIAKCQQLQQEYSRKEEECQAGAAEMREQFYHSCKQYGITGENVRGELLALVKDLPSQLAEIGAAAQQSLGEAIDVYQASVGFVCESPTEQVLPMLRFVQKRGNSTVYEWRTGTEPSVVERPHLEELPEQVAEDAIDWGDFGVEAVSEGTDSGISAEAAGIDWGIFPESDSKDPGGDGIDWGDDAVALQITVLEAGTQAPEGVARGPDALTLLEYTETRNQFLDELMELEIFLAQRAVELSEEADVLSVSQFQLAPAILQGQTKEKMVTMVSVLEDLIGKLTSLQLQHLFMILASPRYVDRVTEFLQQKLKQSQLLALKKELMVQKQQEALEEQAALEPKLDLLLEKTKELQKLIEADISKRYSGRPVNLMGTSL
UniProt P15882: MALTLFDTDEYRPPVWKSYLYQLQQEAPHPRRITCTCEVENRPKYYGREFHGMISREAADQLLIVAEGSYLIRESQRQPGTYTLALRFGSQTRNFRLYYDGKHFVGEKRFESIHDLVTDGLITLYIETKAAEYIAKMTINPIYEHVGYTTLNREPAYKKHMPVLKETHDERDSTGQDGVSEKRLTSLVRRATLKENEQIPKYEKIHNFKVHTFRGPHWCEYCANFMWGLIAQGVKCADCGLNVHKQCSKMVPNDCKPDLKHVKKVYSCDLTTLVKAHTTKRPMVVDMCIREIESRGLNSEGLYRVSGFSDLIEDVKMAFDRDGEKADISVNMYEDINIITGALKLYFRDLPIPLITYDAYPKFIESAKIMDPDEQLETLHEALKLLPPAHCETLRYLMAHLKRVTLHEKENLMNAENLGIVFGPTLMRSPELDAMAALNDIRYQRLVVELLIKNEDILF
UniProt P15529: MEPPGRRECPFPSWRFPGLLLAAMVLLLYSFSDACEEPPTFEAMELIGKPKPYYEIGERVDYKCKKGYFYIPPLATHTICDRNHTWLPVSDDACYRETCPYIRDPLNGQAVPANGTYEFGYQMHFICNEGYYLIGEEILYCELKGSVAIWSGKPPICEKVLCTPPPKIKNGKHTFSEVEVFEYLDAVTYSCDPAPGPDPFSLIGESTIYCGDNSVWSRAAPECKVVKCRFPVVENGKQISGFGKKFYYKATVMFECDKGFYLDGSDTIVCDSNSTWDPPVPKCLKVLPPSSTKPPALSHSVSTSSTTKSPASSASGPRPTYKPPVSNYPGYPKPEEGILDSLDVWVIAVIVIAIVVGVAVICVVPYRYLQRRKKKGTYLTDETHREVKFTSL
UniProt Q96FZ7: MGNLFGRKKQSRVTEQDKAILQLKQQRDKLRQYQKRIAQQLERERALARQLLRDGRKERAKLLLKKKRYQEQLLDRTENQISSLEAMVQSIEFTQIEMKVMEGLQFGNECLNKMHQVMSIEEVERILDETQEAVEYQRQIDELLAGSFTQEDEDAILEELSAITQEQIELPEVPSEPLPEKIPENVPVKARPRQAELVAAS
UniProt O75419: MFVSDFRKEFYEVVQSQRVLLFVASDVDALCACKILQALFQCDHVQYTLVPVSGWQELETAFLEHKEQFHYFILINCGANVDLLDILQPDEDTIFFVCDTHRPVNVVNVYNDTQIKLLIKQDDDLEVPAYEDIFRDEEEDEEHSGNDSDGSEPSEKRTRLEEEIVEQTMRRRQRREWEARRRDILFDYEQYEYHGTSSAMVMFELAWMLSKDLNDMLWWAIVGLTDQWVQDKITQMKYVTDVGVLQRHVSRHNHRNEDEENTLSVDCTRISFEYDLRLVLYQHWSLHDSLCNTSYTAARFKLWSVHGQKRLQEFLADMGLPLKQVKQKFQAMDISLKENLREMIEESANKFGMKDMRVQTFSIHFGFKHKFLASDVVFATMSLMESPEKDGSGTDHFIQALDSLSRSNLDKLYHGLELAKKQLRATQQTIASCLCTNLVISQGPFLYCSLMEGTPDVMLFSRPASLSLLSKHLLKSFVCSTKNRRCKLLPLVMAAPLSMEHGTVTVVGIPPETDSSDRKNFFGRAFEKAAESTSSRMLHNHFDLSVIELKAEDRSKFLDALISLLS

Each target was assayed with COc1ccc(Cn2ccc3ccc(C(=O)NO)cc32)cc1 (assay: dose-dependent thermal stabilisation call (2D-TPP, DLPTP, 10% FDR) (binary (1 = stabilised)); higher = stabilised by the compound). Settings: system: HL-60 intact cells; concentration range 0.04-10 µM.

Target | dose-dependent thermal stabilisation call
CMTM3 (UniProt Q96MX0) | inactive: 0
CDC2L5 (UniProt Q14004) | inactive: 0
CLPP (UniProt Q16740) | active: 1
CCDC51 (UniProt Q96ER9) | inactive: 0
CDC16 (UniProt Q13042) | inactive: 0
CHMP7 (UniProt Q8WUX9) | inactive: 0
CD55 (UniProt P08174) | inactive: 0
CD47 (UniProt Q08722) | inactive: 0
COBRA1 (UniProt Q8WX92) | inactive: 0
CLINT1 (UniProt Q14677) | inactive: 0
CCDC50 (UniProt Q8IVM0) | inactive: 0
CDC2L1 (UniProt P21127) | inactive: 0
CDCA2 (UniProt Q69YH5) | inactive: 0
CISD1 (UniProt Q9NZ45) | inactive: 0
CHCHD8 (UniProt Q9NYJ1) | inactive: 0
CHST10 (UniProt O43529) | inactive: 0
CKS1B (UniProt P61024) | inactive: 0
CHPF (UniProt Q8IZ52) | inactive: 0
CD2AP (UniProt Q9Y5K6) | inactive: 0

Rewritten as comma-separated lines: part of the list above
Target,dose-dependent thermal stabilisation call
CD47 (UniProt Q08722),inactive: 0
CHCHD8 (UniProt Q9NYJ1),inactive: 0

Carrying on:

Target | dose-dependent thermal stabilisation call
CCT3 (UniProt P49368) | inactive: 0
COASY (UniProt Q13057) | inactive: 0
CHMP5 (UniProt Q9NZZ3) | inactive: 0
CCNK (UniProt O75909) | inactive: 0
CDK5RAP2 (UniProt Q96SN8) | inactive: 0
COG7 (UniProt P83436) | inactive: 0
CDC40 (UniProt O60508) | inactive: 0
CMTM6 (UniProt Q9NX76) | inactive: 0
CDK5RAP3 (UniProt Q96JB5) | inactive: 0
CDK7 (UniProt P50613) | inactive: 0
CHN1 (UniProt P15882) | inactive: 0
CD46 (UniProt P15529) | inactive: 0
CHMP6 (UniProt Q96FZ7) | inactive: 0
CHORDC1 (UniProt Q9UHD1) | inactive: 0
CDC45L (UniProt O75419) | inactive: 0
CLCN7 (UniProt P51798) | inactive: 0
CCDC91 (UniProt Q7Z6B0) | inactive: 0
CLTC (UniProt Q00610) | inactive: 0
